Source: US8487095B2, “Acid addition salts, hydrates and polymorphs of 5-(2,4-dihydroxy-5-iso-propyl-phenyl)-4-(4-morpholin-4-ylmethyl-phenyl)-isoxazole-3-carboxylic acid ethylamide and formulations comprising these forms” (priority 2007, dated 2013)
Counter-ions that a name gives are not always drawn. At least one read-out could not be matched to a standard name with certainty.

Assay: Stress tests in solution or suspensions, 4 weeks at 50° C. (Example 8)
Format: physicochemical
Method: The stability of the AUY922 mesylate salt in different aqueous media were determined under stress conditions (4 weeks at 50° C.) and the following appearance/content recovery/sum of by- and degradation products were found: […]

**Q.** With `CCNC(=O)c1noc(-c2cc(C(C)C)c(O)cc2O)c1-c1ccc(CN2CCOCC2)cc1` [mesylate salt, 5-(2,4-Dihydroxy-5-isopropyl-phenyl)-4-(4-morpholin-4-ylmethyl-phenyl)-isoxazole-3-carboxylic acid ethylamide mesylate] as the molecule, how does the content recovery (0.9% NaCl) read?
**A.** 98.5%

**Q.** And the content recovery (5% glucose solution)?
**A.** 99.6%

**Q.** And the content recovery (Water)?
**A.** 97.0%

**Q.** And the content recovery (buffer pH1.0 (HCl))?
**A.** 96.7%

**Q.** And the content recovery (buffer pH2.0 (citrate buffer))?
**A.** 97.8%

**Q.** And the content recovery (buffer pH3.0 (citrate buffer))?
**A.** 99.2%

**Q.** What about the content recovery (buffer pH 4.0 (acetate buffer)) of the same molecule?
**A.** 100.5%

**Q.** What about the content recovery (buffer pH 5.0 (acetate buffer)) of the same molecule?
**A.** 99.1%

**Q.** What about the content recovery (buffer pH 6.0 (phosphate buffer)) of the same molecule?
**A.** 96.2%

**Q.** And the content recovery (buffer pH 6.8 (phosphate buffer))?
**A.** 96.3%

**Q.** What about the content recovery (buffer pH8.0 (borate buffer)) of the same molecule?
**A.** 88.5%
